# The list shows a part of the results. Shown are side measurements of this screen, not its main read-out; they come without a call. Most of these compounds were active or inconclusive in the main read-out, so they are no random draw. The note in brackets gives the kind of curve behind each potency; many fits are weak.
# Test: qHTS Assay for Modulators of Lamin A Splicing
# Conditions: HeLa LMNA splicing GFP/RFP minigene ratio, 48 h
# In short: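 S3 HeLa stable clones carrying a lamin A-EGFP splicing minigene plus DsRed2 were seeded at 600 cells/well in Opti-MEM with 2% FBS, pin-dosed and incubated 48 h at 37°C. Acumen cytometry (488 nm) gave the GFP/RFP total-intensity ratio.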
# [1] = measured here: GFP splicing reporter channel
# [2] = measured here: RFP viability control channel
Compound,AC50 [1],AC50 [2]
O=C(NC1CCCC1)c1ccc2c(=O)n(Cc3ccccc3)c(SCc3ccc([N+](=O)[O-])cc3)nc2c1,"0.398 µM [falling, full curve, poor fit]",
COc1cccc(CNC(=O)CN2C(=O)CCc3cc(S(=O)(=O)N4CCOCC4)ccc32)c1,,"10 µM [rising, partial curve, poor fit]"
Nn1c(-c2cccs2)nc2sc3c(c2c1=O)CCCC3,"35.5 µM [rising, single point]","35.5 µM [rising, single point]"
Cc1ccc(/C=N/N2C(=S)SC(C)(C)C2N(O)C(=O)Nc2ccc([N+](=O)[O-])cc2)cc1 (centres undefined),"12.6 µM [falling, single point]","20 µM [falling, single point]"
COC(=O)CCC(=O)NNC(=O)Cc1ccccc1,,"3.55 µM [falling, partial curve, poor fit]"
Cc1cccc(C(=O)Oc2ccccc2/C=N/NC(=O)c2ccc(NC(=O)C(C)(C)C)cc2)c1,,"3.16 µM [rising, full curve]"
C=CCNC(=O)c1onc(CSc2cccc(C)c2)c1C(=O)O,"0.0158 µM [falling, partial curve]",
CCc1c(C)sc2c1CCN(Cc1ccccc1)C2c1ccccc1 (centres undefined),,"35.5 µM [rising, single point]"
O=C(CSc1ccccc1)Nc1cccc(S(=O)(=O)N2CCCC2)c1,,"3.98 µM [rising, full curve, poor fit]"
O=C(COc1ccc(Cl)cc1)NCc1nnc2c3ccccc3c(-c3ccccc3)nn12,"14.1 µM [rising, partial curve, poor fit]","20 µM [rising, partial curve, poor fit]"
Cc1cc(C)c(C(=O)COC(=O)c2cccnc2Cl)c(C)c1,,"0.708 µM [rising, partial curve]"
O=C(NC1=NCCS1)c1sc2ccccc2c1Cl,"22.4 µM [rising, single point]","22.4 µM [rising, single point]"
CNc1nc(Cl)nc(Nc2ccccc2)n1,,"6.31 µM [rising, full curve, poor fit]"
Cc1[nH]c2ccccc2c1C(=O)CN1CCSCC1,,"8.91 µM [rising, partial curve, poor fit]"
Cc1ccc(-n2ncc(C(=O)NCc3ccc4c(c3)OCO4)c2NC(=O)c2ccco2)cc1C,"3.98 µM [rising, full curve, poor fit]","2.82 µM [rising, full curve, poor fit]"
Cc1cc(/C=C2/C(=N)N3C(c4ccccc4)=CSC3=NC2=O)c(C)n1-c1ccccc1,,"17.8 µM [rising, partial curve, poor fit]"
COCCCNCCCOc1ccc(C(C)(C)c2ccccc2)cc1,"3.98 µM [rising, partial curve]","0.501 µM [rising, full curve, poor fit]"
CCOCCCNC(=O)c1ccccc1OC1CCN(S(C)(=O)=O)CC1,,"0.0141 µM [rising, full curve, poor fit]"
COc1cc(CC(NC(C)=O)C(=O)NC2CCN(C(=O)C3CC3)CC2)cc(OC)c1 (centres undefined),"2.82 µM [rising, single point]",
COc1cc(NC(=S)NCCSc2ccc(C)cc2)cc(OC)c1,,"35.5 µM [rising, single point]"
CC1CCc2c(nc3ncnn3c2N2CCN(c3ccccc3)CC2)C1 (centres undefined),"17.8 µM [rising, partial curve, poor fit]","14.1 µM [rising, single point]"
COC(=O)Nc1ccc2c(c1)N(C(=O)CCN1CCN3CCCC3C1)c1ccccc1S2 (centres undefined),,"35.5 µM [rising, single point]"
Cc1cccc(Cn2cc(/C=C/[N+](=O)[O-])c3ccccc32)c1,"22.4 µM [falling, single point]","25.1 µM [falling, partial curve]"
CCc1ccc(S(=O)(=O)c2cn(C)c3cc(N4CCOCC4)c(F)cc3c2=O)cc1,"22.4 µM [falling, partial curve]","11.2 µM [falling, partial curve]"
CCOC(=O)/C(=C\c1cn(C)c2ccccc12)[N+](=O)[O-],,"35.5 µM [rising, single point]"
O=c1[nH]n2c(=O)c3c([nH]c2c1N=Nc1cccc(Cl)c1)CCC3,"31.6 µM [rising, single point]","31.6 µM [rising, single point]"
COc1ccc(-c2nc(-c3cc4cc(Br)ccc4oc3=O)cs2)cc1,"12.6 µM [rising, partial curve]",
COc1ccccc1CNC(=O)c1ccc(S(=O)(=O)N2CCCC2)cc1,"14.1 µM [rising, single point]","11.2 µM [rising, single point]"

# Part of the list above in order of formula weight, smallest number first.
Compound,AC50 [1],AC50 [2]
CCOC(=O)/C(=C\c1cn(C)c2ccccc12)[N+](=O)[O-],,"35.5 µM [rising, single point]"
Cc1cc(/C=C2/C(=N)N3C(c4ccccc4)=CSC3=NC2=O)c(C)n1-c1ccccc1,,"17.8 µM [rising, partial curve, poor fit]"
COC(=O)Nc1ccc2c(c1)N(C(=O)CCN1CCN3CCCC3C1)c1ccccc1S2 (centres undefined),,"35.5 µM [rising, single point]"

# The listing continues:

Compound,AC50 [1],AC50 [2]
N#CC(Cc1ccc(O)c(O)c1)C(=O)N1CCc2ccccc21 (centres undefined),"12.6 µM [falling, partial curve]","11.2 µM [falling, partial curve]"
CN1/C(=C\C(=S)NC(=O)c2cccc(Br)c2)C(C)(C)c2ccccc21,,"35.5 µM [rising, partial curve, poor fit]"
O=C(O)/C(=C/c1c(C(=O)O)[nH]c2cc(Cl)cc(Cl)c12)c1ccccc1,"5.62 µM [falling, partial curve, poor fit]","6.31 µM [falling, partial curve, poor fit]"
CS(=O)(=O)N1CCN(c2ccccc2NC(=O)c2cccc3ccccc23)CC1,,"5.62 µM [rising, partial curve, poor fit]"
Cc1nn(Cc2cccc(C(=O)Nc3ccn(Cc4c(F)c(F)cc(F)c4F)n3)c2)c(C)c1[N+](=O)[O-],,"7.08 µM [falling, full curve, poor fit]"
O=C(NNC(=O)C1CCCN(S(=O)(=O)c2cccc(F)c2)C1)C1CC1 (centres undefined),"7.08 µM [falling, partial curve]",
Cc1cc(C)cc(N=Cc2ccc([N+](=O)[O-])s2)c1,"7.94 µM [falling, partial curve, poor fit]","0.891 µM [falling, full curve, poor fit]"
O=C(Nc1ccc(Br)cc1)c1ccc(F)c(S(=O)(=O)NC2CCCCCC2)c1,"22.4 µM [falling, single point]","15.8 µM [falling, single point]"
O=C(/C=C\c1ccco1)c1ccc(NC(=O)c2ccco2)cc1,"1.12 µM [falling, full curve, poor fit]",
Cc1ccccc1-c1nc(SCC(=O)NCc2ccc(F)cc2)c2c(=O)n(C)c(=O)n(C)c2n1,"0.316 µM [rising, full curve, poor fit]",
CCOc1ccc(NC(=NCc2ccc3c(c2)OCO3)SC2CC(=O)N(c3ccc(C(=O)O)cc3)C2=O)cc1 (centres undefined),,"31.6 µM [rising, single point]"
O=S(=O)(/C=C/c1ccccc1)NC1CCCCCCC1,"11.2 µM [rising, single point]",
COc1ccc(Cl)cc1C(=O)N(Cc1nc(-c2cccc(C)c2)no1)C(C)C,,"35.5 µM [rising, single point]"
COc1ccc(CCNc2ncnc3sccc23)cc1OC,,"0.01 µM [falling, full curve, poor fit]"
Cc1ccc(C)c(N2CCN(CCCNC(=O)c3ccc4nc(CCc5ccccc5)oc4c3)CC2)c1,"10 µM [falling, partial curve]","12.6 µM [falling, partial curve]"
Cc1cc(C)c2c(NC(=O)c3ccccc3)c(C(=O)Nc3ccc(F)cc3)sc2n1,,"0.00447 µM [falling, full curve, poor fit]"
CN(C(=S)NC(=O)/C=C/c1ccc(F)cc1)C1CCCCC1,,"0.708 µM [falling, partial curve, poor fit]"
Cc1ccc(C(=O)CSc2nc(C)cc(C)c2C(N)=O)cc1,,"11.2 µM [rising, partial curve]"
CCOc1ccc(N2CC(NC(=O)C3CCCC3)CC2=O)cc1 (centres undefined),"0.0447 µM [falling, full curve, poor fit]",
O=C(CSCc1cccc(Br)c1)NC1CC1,"12.6 µM [rising, single point]",
CSCCC(NS(=O)(=O)c1ccc(Cl)cc1)C(=O)OCc1cccc(Cl)c1 (centres undefined),"0.891 µM [rising, partial curve]","35.5 µM [rising, single point]"
COc1ccc(-c2nn3c(-c4ccccc4)nnc3s2)cc1,,"35.5 µM [rising, single point]"
CC(C)c1ccc(/C=C/C(=O)N2CCc3ccccc3C2)cc1,,"35.5 µM [rising, single point]"
CCOC(=O)C1(Cc2ccccc2)CCN(Cc2ccc(C)s2)CC1,"35.5 µM [falling, single point]",
COc1ccc(C(=O)c2sc(Nc3ccccc3)nc2N)cc1,"2.82 µM [falling, partial curve, poor fit]","12.6 µM [falling, partial curve, poor fit]"
Cc1cc(Cl)c(OCCCN2CCCCC2)c(Br)c1,,"7.94 µM [rising, partial curve]"
COC(=O)C1=C(CSc2nc3ccccc3s2)NC(=O)NC1c1ccc(F)cc1 (centres undefined),"14.1 µM [rising, partial curve]","12.6 µM [rising, single point]"

# Source: PubChem BioAssay AID1487 (National Center for Advancing Translational Sciences (NCATS), 2009)
